# Source: patent US6171781
# Test system: NF-ATc/NF-ATp purified from thymus (Bos taurus)
# Test: binding assay
# Details: affinity chromatography purification from bovine thymus cytosol; purified native protein; label: coupled to sepharose CL4B
sequence,measurement,value
ACGCCCAAAGAGGAAAATTTGTTTCATACA (double strand) [NF-AT affinity site (multimerized)],binding result,binds

# For at least one entry, the source does not settle the construct or the ends of the probe.
